PubChem BioAssay AID1224828, NIAID, 2016
Purpose: 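Knock-downs that increase or decrease LPS-induced p65 nuclear translocation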 (primary screen). System: mouse RAW264.7 G9 macrophage reporter cells (GFP-p65, Tnf promoter-mCherry). Reagent: siRNA pool against mouse genes, 100 nM. Time to read-out: 2 days siRNA transfection, then 40 min LPS before fixation. Treatment: LPS (Salmonella minnesota R595) at 10 ng/ml. Measured: 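Microscopy ratio of nuclear to perinuclear-ring GFP-p65 signal, scaled to the plate median; gene score is the average of two replicate robust z-scores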. Reading the numbers: p65 translocation robust z-score: higher = more nuclear NF-kappaB p65 after LPS than the plate median; nuclear/cytoplasmic p65 ratio: higher = more nuclear NF-kappaB p65. Rule for the call: 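Active if robust z is above 3.3 (negative regulators) or below -1.56, the Tlr4 control median (positive regulators); activity score 50 or more; control wells not called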. Meaning of the calls: active = hit (p65 shift raised or lowered); inactive = no clear change.
The whole screen tested about 17,000 reagents; shown is an unselected part. 762 of all reagents (4.5%) count as active. 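Active calls include both raised and lowered p65 entry, mostly lowered; wells with fewer than 50 cells lack a z-score.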 The raw values are shown without normalisation. Entries without a mark were called inactive. Reagents against one gene are numbered here. Reagent sequences are not shown.

gene knocked down	reagent	p65 translocation robust z-score	nuclear/cytoplasmic p65 ratio, rep 1	nuclear/cytoplasmic p65 ratio, rep 2	low cell count flag
Or51a39 (olfactory receptor family 51 subfamily A member 39)	1	-1.57 (active)	1.29	1.29	enough cells to score
Npas4 (neuronal PAS domain protein 4)	1	1.16	1.6	1.57	enough cells to score
Cisd1 (CDGSH iron sulfur domain 1)	1	-0.76	1.47	1.65	enough cells to score
Gapdh (glyceraldehyde-3-phosphate dehydrogenase)	1		1.3	1.06	fewer than 50 cells per well; well left out of scoring
Gapdh (glyceraldehyde-3-phosphate dehydrogenase)	2		1.1	1.31	fewer than 50 cells per well; well left out of scoring
Stk32a (serine/threonine kinase 32A)	1	0.55	1.59	1.29	enough cells to score
Acat3 (acetyl-Coenzyme A acetyltransferase 3)	1	-0.34	1.59	1.54	enough cells to score
Mthfsd (methenyltetrahydrofolate synthetase domain containing)	1	-2.11 (active)	1.16	1.21	enough cells to score
Clec2m (C-type lectin domain family 2, member m)	1	0.38	1.07	1.35	enough cells to score
Znhit2 (zinc finger, HIT domain containing 2)	1		1.28	1.42	fewer than 50 cells per well; well left out of scoring
Sdc2 (syndecan 2)	1	-0.42	1.41	1.13	enough cells to score
Or2n1c (olfactory receptor family 2 subfamily N member 1C)	1	-0.4	1.5	1.37	enough cells to score
Prim1 (DNA primase, p49 subunit)	1	2.49	1.86	1.72	enough cells to score
Gjb5 (gap junction protein, beta 5)	1	-0.08	1.38	1.4	enough cells to score
Omt2b (oocyte maturation, beta)	1	1.67	2.1	1.8	enough cells to score
Usp17la (ubiquitin specific peptidase 17-like A)	1	1	1.59	1.5	enough cells to score
Qsox2 (quiescin Q6 sulfhydryl oxidase 2)	1		1.1	1.07	fewer than 50 cells per well; well left out of scoring
Tada1 (transcriptional adaptor 1)	1	-0.3	1.47	1.56	enough cells to score
S1pr2 (sphingosine-1-phosphate receptor 2)	1	-1.69 (active)	1.4	1.34	enough cells to score
Cox7a1 (cytochrome c oxidase subunit 7A1)	1	-0.85	1.4	1.7	enough cells to score
Rasgrp2 (RAS, guanyl releasing protein 2)	1	0.33	1.51	1.61	enough cells to score
Rdh19 (retinol dehydrogenase 19)	1	0.06	1.34	1.23	enough cells to score
Tigd3 (tigger transposable element derived 3)	1	-0.4	1.69	1.45	enough cells to score
Mapk6 (mitogen-activated protein kinase 6)	1	0.62	1.71	1.45	enough cells to score
Birc5 (baculoviral IAP repeat-containing 5)	1	-0.17	1.66	1.52	enough cells to score
Fkbp1a (FK506 binding protein 1a)	1	-0.47	1.31	1.37	enough cells to score
Syt16 (synaptotagmin XVI)	1	1.56	1.63	1.36	enough cells to score
Olfm2 (olfactomedin 2)	1		1.55	1.99	fewer than 50 cells per well; well left out of scoring
Mxd4 (Max dimerization protein 4)	1	0.61	1.56	1.39	enough cells to score
Pbp2 (phosphatidylethanolamine binding protein 2)	1	1.23	1.6	1.54	enough cells to score
Cnksr2 (connector enhancer of kinase suppressor of Ras 2)	1	-0.01	1.61	1.76	enough cells to score
Dkk3 (dickkopf WNT signaling pathway inhibitor 3)	1		1.55	1.67	fewer than 50 cells per well; well left out of scoring
Vstm2l (V-set and transmembrane domain containing 2-like)	1	1.02	1.73	1.75	enough cells to score
Higd1a (HIG1 domain family, member 1A)	1	-0.43	1.32	1.38	enough cells to score
C1qtnf12 (C1q and tumor necrosis factor related 12)	1	-1.49	1.29	1.11	enough cells to score
Zfp874a (zinc finger protein 874a)	1		1.26	1.47	fewer than 50 cells per well; well left out of scoring
Cntn2 (contactin 2)	1	-0.34	1.02	1.34	enough cells to score
Lrp2bp (Lrp2 binding protein)	1		1.08	1.02	fewer than 50 cells per well; well left out of scoring
1700030K09Rik (RIKEN cDNA 1700030K09 gene)	1		1.13	1.51	fewer than 50 cells per well; well left out of scoring
Dlg1 (discs large MAGUK scaffold protein 1)	1	-0.89	1.74	1.27	enough cells to score
Laptm5 (lysosomal-associated protein transmembrane 5)	1	1.78	1.91	1.58	enough cells to score
Pcsk1n (proprotein convertase subtilisin/kexin type 1 inhibitor)	1	-0.05	1.17	1.24	enough cells to score
Aldh9a1 (aldehyde dehydrogenase 9, subfamily A1)	1	1.55	1.8	1.9	enough cells to score
Tesk2 (testis-specific kinase 2)	1	-1.42	1.31	1.33	enough cells to score
Or51h1 (olfactory receptor family 51 subfamily H member 1)	1		0.93	1.28	fewer than 50 cells per well; well left out of scoring
Vsig1 (V-set and immunoglobulin domain containing 1)	1	0.39	1.31	1.38	enough cells to score
Gnpda1 (glucosamine-6-phosphate deaminase 1)	1	0.01	1.39	1.43	enough cells to score
Slc6a8	1	0.75	1.64	1.61	enough cells to score
Pcdhb22 (protocadherin beta 22)	1	-1.42	1.24	1.25	enough cells to score
Macroh2a1 (macroH2A.1 histone)	1	0.99	1.58	1.48	enough cells to score
Ndst1 (N-deacetylase/N-sulfotransferase (heparan glucosaminyl) 1)	1	-2.61 (active)	1.44	1.14	enough cells to score
Rangap1 (RAN GTPase activating protein 1)	1	-1.18	1.42	1.29	enough cells to score
Cabp7 (calcium binding protein 7)	1	-3.01 (active)	1.18	1.25	enough cells to score
Kcnt1 (potassium channel, subfamily T, member 1)	1	0.35	1.48	1.37	enough cells to score
Brf1	1	0.84	1.73	1.75	enough cells to score
Acadm (acyl-Coenzyme A dehydrogenase, medium chain)	1	0.2	1.7	1.6	enough cells to score
Hoxc10 (homeobox C10)	1	-0.8	1.32	1.28	enough cells to score
E2f5 (E2F transcription factor 5)	1	0.61	1.61	1.41	enough cells to score
Slain1 (SLAIN motif family, member 1)	1	-0.83	1.32	1.43	enough cells to score
Akr1b8 (aldo-keto reductase family 1, member B8)	1	0.37	1.69	1.65	enough cells to score
Rpp30 (ribonuclease P/MRP 30 subunit)	1	0.55	1.51	1.26	enough cells to score
Dmtn (dematin actin binding protein)	1	0.91	1.71	1.6	enough cells to score
Gabrr2 (gamma-aminobutyric acid type A receptor subunit rho 2)	1	-0.96	1.3	1.25	enough cells to score
P2rx2 (purinergic receptor P2X, ligand-gated ion channel, 2)	1	0.47	1.56	1.43	enough cells to score
Cep70 (centrosomal protein 70)	1	-0.59	1.38	1.41	enough cells to score
Ivd (isovaleryl coenzyme A dehydrogenase)	1	-0.25	1.45	1.34	enough cells to score
Itgbl1 (integrin, beta-like 1)	1	1.34	1.68	1.54	enough cells to score
Or2ag13 (olfactory receptor family 2 subfamily AG member 13)	1	-0.17	1.3	1.25	enough cells to score
2310030G06Rik (RIKEN cDNA 2310030G06 gene)	1		1.33	1.2	fewer than 50 cells per well; well left out of scoring
Gsto2 (glutathione S-transferase omega 2)	1		1.35	1.36	fewer than 50 cells per well; well left out of scoring
Or5p69 (olfactory receptor family 5 subfamily P member 69)	1	0.46	1.51	1.25	enough cells to score
Naxe (NAD(P)HX epimerase)	1	0.49	1.63	1.62	enough cells to score
Cnn1 (calponin 1)	1	-0.21	1.57	1.74	enough cells to score
Acvr1 (activin A receptor, type 1)	1	-0.4	1.92	1.33	enough cells to score
Zfp574 (zinc finger protein 574)	1	-0.77	1.35	1.34	enough cells to score

6 entries from above, reduced to “nuclear/cytoplasmic p65 ratio, rep 2”:
Macroh2a1 (macroH2A.1 histone)	1.48
Ndst1 (N-deacetylase/N-sulfotransferase (heparan glucosaminyl) 1)	1.14 (active)
Rangap1 (RAN GTPase activating protein 1)	1.29
Cabp7 (calcium binding protein 7)	1.25 (active)
Kcnt1 (potassium channel, subfamily T, member 1)	1.37
Brf1	1.75
